Values quoted from earlier work as cited in US20110059977A1 (priority 2006, published 2011).
At least one compound was matched to its structure with a doubt left.

System: M. smegmatis
Details: rifampicine 25 μg/mL; cited from earlier work

CO[C@H]1/C=C/O[C@@]2(C)Oc3c(C)c(O)c4c(O)c(c(/C=N/N5CCN(C)CC5)c(O)c4c3C2=O)NC(=O)/C(C)=C\C=C\[C@H](C)[C@H](O)[C@@H](C)[C@@H](O)[C@@H](C)[C@H](OC(C)=O)[C@@H]1C [rifampicin]
Susceptibility of M. smegmatis: resistant
